Laboratory results taken from the supplement of paper PMC8104966.
The list shows a part of the results. Repeats in this data set agree poorly, so a single value says little.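 U2OS cells expressing ACE2 were combined with U2OS cells expressing full-length spike, and imaging quantified fusion as the fraction of nuclei displaying both cell types' fluorescent markers. Non-toxic compounds with a fusion z-score under -3, i.e., over three standard deviations below the plate's DMSO wells, are called inhibitory hits.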

System: U2OS ACE2 x SARS-CoV-2 spike co-culture
Experiment: cell-cell fusion (fraction fused) z-score vs plate DMSO control; higher = more fusion
Conditions: 30 µM; 5 h; toxicity class: non-toxic, passed QC

Structure (SMILES)	cell-cell fusion (z-score)
CC(=N)NCCCCC(N)C(=O)O.Cl (stereo in doubt) [L-N6-(1-Iminoethyl)lysine hydrochloride]	inactive: 3.01
CC(=O)OC1CCC2C3CCc4cc(O)ccc4C3CCC12C (stereo not drawn)	inactive: 2.32
O=C(O)c1cc(O)c2cccc(O)c2n1	inactive: 2.8
C=C1[C@H](CO)[C@@H](O)C[C@@H]1n1cnc2c(=O)nc(N)[nH]c21.O [Entecavir hydrate]	inactive: 1.19
O=C(O)[C@@H](S)[C@@H](S)C(=O)O [Succimer]	inactive: -0.86
C[C@]12[C@H](O)CC3C(CC[C@@H]4C[C@@H](O)CC[C@]34C)[C@@]1(O)CC[C@@H]2C1=CC(=O)OC1 (stereo partly drawn)	inactive: 0.415
CCC1(CC)C(=O)C=CNC1=O	inactive: 1.23
O=c1[nH]c(=O)n([C@H]2C[C@H](O)[C@@H](CO)O2)cc1I [Dendrid]	inactive: 4.03
O=c1cc(N2CCOCC2)oc2c1ccc1ccccc12	inactive: 0.867
COc1ccc2cc([C@@H](C)C(=O)O)ccc2c1 [(R)-Naproxen]	inactive: 2.9
Cc1ncsc1CCCl.Cl [Chlormethiazole hydrochloride]	inactive: 2.38
CN(C(=O)CCCOc1ccc2[nH]c(=O)ccc2c1)C1CCCCC1 [Cilostamide]	inactive: 2.8
O=C(O)Cc1cc(I)c(Oc2ccc(O)c(I)c2)c(I)c1	inactive: -1.07
COc1cc(C(O)C(=O)O)ccc1O (racemic) [(±)-Vanillylmandelic acid]	inactive: 2.74
COc1ccc2c(c1)O[C@H]1c3ccc(OC)cc3OC[C@@H]21	inactive: 3.54
O=C(O)CN(CCN(CC(=O)O)CC(=O)O)CCN(CC(=O)O)CC(=O)O [Pentetic Acid]	inactive: 2.69
CCN(CC)CC(=O)Oc1ccc(NC(C)=O)cc1.Cl [Propacetamol Hydrochloride]	inactive: 0.645
CCCCC(CC)CN1CN(CC(CC)CCCC)CC(C)(N)C1 (stereo not drawn)	inactive: 2.59
Cc1[nH]c2ccccc2c1CN(C)C	inactive: 3.27
Nc1ccc2c3c(cccc13)C(=O)NC2=O [4-Amino-1,8-naphthalimide]	inactive: 6.55
COc1ccc2nc3cc(Cl)ccc3c(Nc3cc(CN4CCCC4)c(O)c(CN4CCCC4)c3)c2n1.O=P(O)(O)O.O=P(O)(O)O.O=P(O)(O)O.O=P(O)(O)O	inactive: 1.48
C#C[C@]1(O)CC[C@H]2[C@@H]3CCC4=CC(=O)CC[C@@H]4[C@H]3CC[C@@]21C [Norethindrone]	inactive: 3.68
CC(C)CC(NC(=O)CN)C(=O)NC(Cc1ccccc1)C(=O)O (stereo not drawn)	inactive: 2.73

A stretch from the list above:
Structure (SMILES)	cell-cell fusion (z-score)
CN(C(=O)CCCOc1ccc2[nH]c(=O)ccc2c1)C1CCCCC1 [Cilostamide]	inactive: 2.8
O=C(O)Cc1cc(I)c(Oc2ccc(O)c(I)c2)c(I)c1	inactive: -1.07
COc1cc(C(O)C(=O)O)ccc1O (racemic) [(±)-Vanillylmandelic acid]	inactive: 2.74

Next part:

Structure (SMILES)	cell-cell fusion (z-score)
COc1cc2occc2c2oc(=O)ccc12	inactive: 2.39
N#Cc1c(Cl)c(Cl)c(Cl)c(C#N)c1Cl	inactive: 0.724
CC[C@@H](C(=O)[C@@H](C)[C@@H](O)[C@H](C)[C@@H]1O[C@@H]([C@@H](CC)C(=O)[O-])CC[C@@H]1C)[C@H]1OC2(C=C[C@@H](O)[C@]3(CC[C@@](C)([C@H]4CC[C@](O)(CC)[C@H](C)O4)O3)O2)[C@H](C)C[C@@H]1C.[Na+] (stereo partly drawn)	inactive: -0.31
CN(C)[C@@H]1C(O)=C(C(N)=O)C(=O)[C@@]2(O)C(O)=C3C(=O)c4c(O)cccc4[C@@](C)(O)[C@H]3C[C@@H]12.Cl [Tetracycline hydrochloride]	inactive: 2.92
NC[C@@H]1O[C@H](O[C@@H]2[C@@H](CO)OC(O[C@@H]3[C@@H](O)[C@H](N)C[C@H](N)[C@H]3OC3O[C@H](CN)[C@@H](O)[C@H](O)[C@H]3N)[C@@H]2O)[C@H](N)[C@@H](O)[C@@H]1O.O=S(=O)(O)O (stereo partly drawn)	inactive: 0.593
CN(Cc1cnc2nc(N)nc(N)c2n1)c1ccc(C(=O)N[C@@H](CCC(=O)O)C(=O)O)cc1 [Abitrexate (Methotrexate)]	inactive: 0.877
C=CC(C1=CC(=O)C(OC)=CC1=O)c1ccccc1 (stereo not drawn)	inactive: 2.15
C[C@@H](c1ncncc1F)[C@](O)(Cn1cncn1)c1ccc(F)cc1F [Voriconazole]	inactive: 2.08
C[C@@H](c1ncncc1F)[C@](O)(Cn1cncn1)c1ccc(F)cc1F	inactive: 2.52
CC(=O)[C@H]1CC[C@H]2[C@@H]3C[C@H](C)C4=CC(=O)CC[C@]4(C)[C@H]3[C@@H](O)C[C@]12C [Medrysone]	inactive: -1.02
C[C@H]1CC2C3CCC4=CC(=O)C=C[C@]4(C)[C@@]3(F)[C@@H](O)C[C@]2(C)[C@@]1(O)C(=O)CO (stereo partly drawn)	inactive: 1.15
C[C@H]1CC2C3CCC4=CC(=O)C=C[C@]4(C)[C@@]3(F)[C@@H](O)C[C@]2(C)[C@@]1(O)C(=O)CO (stereo partly drawn) [Betamethasone]	inactive: 1.67
CCCc1nc(C)c2c(=O)[nH]c(-c3cc(S(=O)(=O)N4CCN(CC)CC4)ccc3OCC)nn12.Cl	inactive: 0.279
O=C([O-])[C@H](O)[C@@H](O)[C@H](O)[C@H](O)CO.O=C([O-])[C@H](O)[C@@H](O)[C@H](O)[C@H](O)CO.[Ca+2] [Calcium gluconate]	inactive: 3.02
C/C=C\C1=C(C(=O)O)N2C(=O)C(NC(=O)C(N)c3ccc(O)cc3)C2SC1 (stereo not drawn)	inactive: 3.62
COc1cc2nc(N3CCN(C(=O)C4COc5ccccc5O4)CC3)nc(N)c2cc1OC.CS(=O)(=O)O (stereo not drawn) [Doxazosin mesylate]	inactive: 0.171
CCCCCCCCCCCCCCCCCCc1ccc(C(=O)/C=C/C(=O)O)cc1	inactive: 3.19
COc1cc2c(cc1OC)-c1cc3ccc(OC)c(OC)c3c[n+]1CC2.[Cl-]	inactive: 2.75
COc1cc2c3cc1Oc1cc(ccc1O)C[C@@H]1c4c(cc(OC)c(O)c4Oc4ccc(cc4)C[C@@H]3N(C)CC2)CC[N+]1(C)C.Cl.[Cl-]	inactive: 1.39
C=C1C[C@@]23CC[C@H]4[C@@](C)(CCC[C@@]4(C)C(=O)OC4OC(CO)C(O)C(O)C4O)[C@@H]2CC[C@]1(OC1OC(CO)C(O)C(O)C1OC1OC(CO)C(O)C(O)C1O)C3 (stereo partly drawn) [Stevioside]	inactive: 2.4
COc1ccc(OC)c(C(O)CNC(=O)CN)c1.Cl (stereo not drawn) [Midodrine hydrochloride]	inactive: 3.32
COc1c2ccoc2c(OC)c2oc(=O)ccc12	inactive: 2.58
COC(=O)[C@H](c1ccccc1Cl)N1CCc2sccc2C1.O=S(=O)(O)O	inactive: 1.22

Structure (SMILES)	cell-cell fusion (z-score)
Cl.NCCCC(N)C(=O)O (stereo not drawn)	inactive: -0.141
CC1(C)C=Cc2cc3ccc(=O)oc3cc2O1	inactive: 1.25
CCN1CCC(CNC(=O)c2cc(S(N)(=O)=O)ccc2OC)C1 (stereo not drawn)	inactive: 2.85
CC(N)C12CC3CC(CC(C3)C1)C2.Cl (stereo not drawn)	inactive: -1.52
[NH3+][Pt]1([NH3+])[O]C(=O)C2(CCC2)C(=O)[O]1 [Carboplatin]	inactive: 1.23
CN(C)CCOC(c1ccccc1)c1ccccc1.Cl	inactive: 2.17
CN(C)CCOC(c1ccccc1)c1ccccc1.Cl [Diphenhydramine hydrochloride]	inactive: 2.99
O=C(O)[C@H](O)[C@@H](O)C(=O)O.c1cnc2cc3c(cc2n1)C1CNCC3C1 [Varenicline Tartrate]	inactive: 3.77
Br.CN1C2CCC1CC(OC(=O)C(O)c1ccccc1)C2 (racemic) [DL-Homatropine hydrobromide]	inactive: 3.57
FC(F)(F)c1ccc(CNc2ccc(Cc3c[nH]c4ncc(Cl)cc34)cn2)cn1 [Pexidartinib]	inactive: 3.35
CCC(=O)O[C@]1(C(=O)SCF)[C@H](C)CC2C3CC(F)C4=CC(=O)C=C[C@]4(C)C3(F)[C@@H](O)C[C@@]21C (stereo partly drawn)	inactive: 2.78
CC[C@H](C(=O)[C@H](C)[C@@H](O)[C@@H](C)[C@@H]1O[C@@H]([C@@H](CC)C(=O)O)CC[C@H]1C)[C@H]1O[C@]2(C=C[C@@H](O)[C@]3(CC[C@@](C)([C@H]4CC[C@](O)(CC)[C@H](C)O4)O3)O2)[C@H](C)C[C@H]1C [Salinomycin (Procoxacin)]	inactive: 1.62
C/C(=C\C(=O)OCCCCCCCCC(=O)O)C[C@@H]1OC[C@H](C[C@@H]2O[C@H]2[C@@H](C)[C@H](C)O)[C@@H](O)[C@H]1O [Mupirocin]	inactive: 2.77
Clc1ccccc1C(c1ccccc1)(c1ccccc1)n1ccnc1	inactive: 1.63
Clc1ccccc1C(c1ccccc1)(c1ccccc1)n1ccnc1 [Clotrimazole]	inactive: 1.15
Cl.N=C(N)NC(=O)c1nc(Cl)c(N)nc1N	inactive: 1.25
O=C(O)[C@@H](S)[C@@H](S)C(=O)O	inactive: 3.49
O=C(O)c1ccc[n+]([O-])c1	inactive: 3.88
CC(C)c1cc2c(c(O)c1O)[C@@]1(C(=O)O)CCCC(C)(C)C1CC2 (stereo partly drawn)	inactive: 2.53
COC1(C2=NCCN2)COc2ccccc2O1.Cl (stereo not drawn)	inactive: 1.47
CC(C)(C)NCC(O)c1cc(Cl)c(N)c(Cl)c1.Cl (stereo not drawn)	inactive: 0.951
CC(=O)O[C@H]1C[C@@H](O)C(C)(C)C2C[C@@H](OC(C)=O)[C@]3(C)C(CC[C@@]4(C)[C@H](c5ccoc5)OC(=O)C5OC543)[C@]21C (stereo partly drawn)	inactive: 1.71

Part of the list above, field by field:
CC1(C)C=Cc2cc3ccc(=O)oc3cc2O1
  cell-cell fusion (z-score): inactive: 1.25
Cl.N=C(N)NC(=O)c1nc(Cl)c(N)nc1N
  cell-cell fusion (z-score): inactive: 1.25
